Experimental data as given in publication PMC11522691, “Structure of the turnover-ready state of an ancestral respiratory complex I” (Nature Communications, 2024).

By UniProt entry, the sequences of proteins in these tests, tags left out. Where a name states a change or a piece, a line headed by the entry shows the natural chain unless it says otherwise.
UniProt A1B5L6: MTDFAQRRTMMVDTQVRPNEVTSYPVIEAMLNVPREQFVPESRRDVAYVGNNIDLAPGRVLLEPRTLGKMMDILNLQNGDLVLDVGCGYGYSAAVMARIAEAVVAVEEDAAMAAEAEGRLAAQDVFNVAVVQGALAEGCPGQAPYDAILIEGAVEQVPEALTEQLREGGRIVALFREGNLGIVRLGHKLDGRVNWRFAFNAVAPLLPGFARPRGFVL

Tests used:
Assay in all cases: cryo-EM structure; Pd-CI purified whole from P. denitrificans membranes in DDM (His-Trap, size exclusion), reconstituted into MSP2N2 phospholipid nanodiscs with ubiquinone-10; 2.3 Å consensus map, 2.5 Å focussed map of ND4-ND5; both purified
[1] = target: T1, Pd-NDUFS2 (Nqo4), core subunit of P. denitrificans complex I (Paracoccus denitrificans) (UniProt P29916)
T1 sequence (chain, dimethyl-arginine at position 65): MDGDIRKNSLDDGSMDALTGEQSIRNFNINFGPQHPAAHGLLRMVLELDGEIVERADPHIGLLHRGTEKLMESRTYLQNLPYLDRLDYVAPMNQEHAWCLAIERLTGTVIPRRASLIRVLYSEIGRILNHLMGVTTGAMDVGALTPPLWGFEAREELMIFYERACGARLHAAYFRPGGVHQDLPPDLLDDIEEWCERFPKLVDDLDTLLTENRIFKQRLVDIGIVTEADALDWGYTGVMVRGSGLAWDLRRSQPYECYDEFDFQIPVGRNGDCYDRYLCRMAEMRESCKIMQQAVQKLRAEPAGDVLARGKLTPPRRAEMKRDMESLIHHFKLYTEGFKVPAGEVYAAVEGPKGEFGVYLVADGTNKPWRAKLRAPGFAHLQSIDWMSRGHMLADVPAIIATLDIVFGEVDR

[2] = target: T2, Pd-NDUFS3 (Nqo5), core subunit of P. denitrificans complex I, His6-tagged (Paracoccus denitrificans) (UniProt P29917)
T2 sequence: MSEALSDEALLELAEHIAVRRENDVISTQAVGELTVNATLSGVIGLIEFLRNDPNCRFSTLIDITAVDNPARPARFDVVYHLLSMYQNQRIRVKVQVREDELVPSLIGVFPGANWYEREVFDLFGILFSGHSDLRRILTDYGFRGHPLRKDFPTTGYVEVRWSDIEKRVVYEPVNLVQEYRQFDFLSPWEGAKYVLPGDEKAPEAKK

[3] = target: T3, Pd-ND3 (Nqo7), core subunit of P. denitrificans complex I (Paracoccus denitrificans) (UniProt P29919)
T3 sequence (chain, formyl-Met at the N-terminus (modelled from additional density)): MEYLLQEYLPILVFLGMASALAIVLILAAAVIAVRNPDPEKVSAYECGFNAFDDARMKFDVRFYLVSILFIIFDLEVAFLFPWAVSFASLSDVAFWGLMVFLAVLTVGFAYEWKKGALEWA

[4] = target: T4, Pd-NDUFV1 (Nqo1), core subunit of P. denitrificans complex I (Paracoccus denitrificans) (UniProt P29913)
T4 sequence: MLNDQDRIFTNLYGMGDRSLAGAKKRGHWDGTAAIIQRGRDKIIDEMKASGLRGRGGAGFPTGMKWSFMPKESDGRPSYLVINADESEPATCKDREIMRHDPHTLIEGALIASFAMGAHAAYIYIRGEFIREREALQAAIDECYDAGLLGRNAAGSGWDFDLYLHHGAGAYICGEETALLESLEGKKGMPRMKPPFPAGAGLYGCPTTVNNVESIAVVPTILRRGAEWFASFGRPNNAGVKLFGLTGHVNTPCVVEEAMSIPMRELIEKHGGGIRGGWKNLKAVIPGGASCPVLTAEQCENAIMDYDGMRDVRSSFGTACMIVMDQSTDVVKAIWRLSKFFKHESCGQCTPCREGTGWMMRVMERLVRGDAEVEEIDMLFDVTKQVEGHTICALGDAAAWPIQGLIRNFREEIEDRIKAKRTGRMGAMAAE

[5] = target: T5, Pd-NDUFS1 (Nqo3), core subunit of P. denitrificans complex I (Paracoccus denitrificans) (UniProt P29915)
T5 sequence: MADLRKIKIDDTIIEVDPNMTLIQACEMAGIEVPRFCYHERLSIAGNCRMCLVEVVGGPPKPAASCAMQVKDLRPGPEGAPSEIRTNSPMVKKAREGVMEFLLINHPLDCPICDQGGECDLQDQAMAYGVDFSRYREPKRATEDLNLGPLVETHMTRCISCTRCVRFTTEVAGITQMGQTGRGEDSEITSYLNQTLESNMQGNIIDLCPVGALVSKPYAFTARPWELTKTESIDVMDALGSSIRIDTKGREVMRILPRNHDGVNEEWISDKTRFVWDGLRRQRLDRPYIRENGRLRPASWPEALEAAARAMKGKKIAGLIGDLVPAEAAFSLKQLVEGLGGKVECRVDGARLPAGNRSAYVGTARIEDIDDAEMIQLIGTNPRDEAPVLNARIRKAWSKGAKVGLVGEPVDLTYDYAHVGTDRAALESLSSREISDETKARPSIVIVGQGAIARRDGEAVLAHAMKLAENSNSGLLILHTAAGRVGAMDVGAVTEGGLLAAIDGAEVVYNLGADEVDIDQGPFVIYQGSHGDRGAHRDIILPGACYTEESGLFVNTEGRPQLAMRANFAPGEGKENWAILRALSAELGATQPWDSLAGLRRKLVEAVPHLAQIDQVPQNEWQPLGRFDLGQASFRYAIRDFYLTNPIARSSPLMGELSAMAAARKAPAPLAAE

[6] = target: T6, Pd-NDUFV2 (Nqo2), core subunit of P. denitrificans complex I (Paracoccus denitrificans) (UniProt P29914)
T6 sequence: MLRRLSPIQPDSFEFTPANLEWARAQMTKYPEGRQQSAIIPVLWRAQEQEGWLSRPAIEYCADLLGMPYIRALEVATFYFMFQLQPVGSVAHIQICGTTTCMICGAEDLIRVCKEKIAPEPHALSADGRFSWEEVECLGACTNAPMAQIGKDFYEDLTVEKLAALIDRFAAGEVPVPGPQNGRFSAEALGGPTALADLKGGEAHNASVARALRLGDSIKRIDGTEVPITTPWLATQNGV

Substance	binding [1]	binding [2]	binding [3]	binding [4]	binding [5]	binding [6]
CI-PIMT, protein L-isoaspartyl-O-methyltransferase subunit of P. denitrificans complex I (from UniProt A1B5L6)	binds	binds	binds			
Pd-NDUFS4, supernumerary subunit of P. denitrificans complex I (Paracoccus denitrificans)		binds		binds	binds	binds
Pd-NDUFS6, supernumerary subunit of P. denitrificans complex I (Paracoccus denitrificans)					binds	

No constants are given. Whether binding was seen depends on the method and setting. Binding can be weak; no strength is given. For some assays here: Tags and fused reporters may be left off the sequences shown.
